The results in this text go back to patent US20070116673A1, “Method for activating T cell protein phosphatase and therapeutical methods based thereon” (Valtion Teknillinen Tutkimuskeskus, priority 2005, published 2007).

Amino acid sequences for entries named in this document (tags omitted). A change or cut given only in a name is not applied to a line headed by its entry.
UniProt P04386: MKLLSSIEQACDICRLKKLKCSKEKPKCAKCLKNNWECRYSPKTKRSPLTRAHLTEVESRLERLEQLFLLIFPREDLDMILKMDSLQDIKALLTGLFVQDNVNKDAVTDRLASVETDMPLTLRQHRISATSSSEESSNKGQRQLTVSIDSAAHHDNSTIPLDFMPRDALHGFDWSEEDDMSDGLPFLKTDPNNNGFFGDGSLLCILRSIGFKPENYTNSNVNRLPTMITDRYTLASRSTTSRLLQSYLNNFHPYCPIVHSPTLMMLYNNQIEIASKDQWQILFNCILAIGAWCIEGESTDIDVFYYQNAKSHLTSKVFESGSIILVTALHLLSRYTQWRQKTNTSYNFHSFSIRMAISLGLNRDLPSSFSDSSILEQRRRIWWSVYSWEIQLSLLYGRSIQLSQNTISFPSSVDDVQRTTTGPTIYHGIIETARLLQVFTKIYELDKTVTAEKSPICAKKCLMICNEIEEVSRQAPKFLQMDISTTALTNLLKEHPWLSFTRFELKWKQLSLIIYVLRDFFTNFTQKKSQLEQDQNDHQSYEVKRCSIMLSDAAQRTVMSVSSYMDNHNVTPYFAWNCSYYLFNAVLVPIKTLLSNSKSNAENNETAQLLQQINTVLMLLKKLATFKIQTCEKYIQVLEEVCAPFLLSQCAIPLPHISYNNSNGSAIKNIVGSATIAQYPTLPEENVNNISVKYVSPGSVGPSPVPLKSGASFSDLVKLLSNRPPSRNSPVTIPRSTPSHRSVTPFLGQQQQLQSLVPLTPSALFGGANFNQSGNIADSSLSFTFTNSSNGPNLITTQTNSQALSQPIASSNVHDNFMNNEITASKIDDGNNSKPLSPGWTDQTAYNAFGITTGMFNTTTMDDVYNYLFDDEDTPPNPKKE

These are yes or no findings as the source states them, for the method shown. Some entries that bind do so weakly or less than the wild type.

The assay concerns the target GAL4-DBD-α1cyt (α1-integrin cytoplasmic domain fused to GAL4 DNA-BD in the pGBKT7 vector) (UniProt P04386). The experiment in a line: yeast two-hybrid screen.

B1: T-cell protein tyrosine phosphatase clone from mouse 17-day embryo Matchmaker cDNA library (45 kDa form of TCPTP) (enzyme, UniProt Q06180-2 1-382, looked up)
chain: MSATIEREFEELDAQCRWQPLYLEIRNESHDYPHRVAKFPENRNRNRYRDVSPYDHSRVKLQSTENDYINASLVDIEEAQRSYILTQGPLPNTCCHFWLMVWQQKTKAVVMLNRTVEKESVKCAQYWPTDDREMVFKETGFSVKLLSEDVKSYYTVHLLQLENINTGETRTISHFHYTTWPDFGVPESPASFLNFLFKVRESGCLTPDHGPAVIHCSAGIGRSGTFSLVDTCLVLMEKGEDVNVKQLLLNMRKYRMGLIQTPDQLRFSYMAIIEGAKYTKGDSNIQKRWKELSKEDLSPICDHSQNRVMVEKYNGKRIGSEDEKLTGLPSKVQDTVEESSESILRKRIREDRKATTAQKVQQMKQRLNETERKRKRPRLTDT
Consider B1, for which the binding entry was “binds”.
